In assay [1] the target is T1, Squamous cell carcinoma antigen recognized by T cells 3 (SART3) (human (endogenous in HCT116)) (UniProt Q15020).
T1 sequence: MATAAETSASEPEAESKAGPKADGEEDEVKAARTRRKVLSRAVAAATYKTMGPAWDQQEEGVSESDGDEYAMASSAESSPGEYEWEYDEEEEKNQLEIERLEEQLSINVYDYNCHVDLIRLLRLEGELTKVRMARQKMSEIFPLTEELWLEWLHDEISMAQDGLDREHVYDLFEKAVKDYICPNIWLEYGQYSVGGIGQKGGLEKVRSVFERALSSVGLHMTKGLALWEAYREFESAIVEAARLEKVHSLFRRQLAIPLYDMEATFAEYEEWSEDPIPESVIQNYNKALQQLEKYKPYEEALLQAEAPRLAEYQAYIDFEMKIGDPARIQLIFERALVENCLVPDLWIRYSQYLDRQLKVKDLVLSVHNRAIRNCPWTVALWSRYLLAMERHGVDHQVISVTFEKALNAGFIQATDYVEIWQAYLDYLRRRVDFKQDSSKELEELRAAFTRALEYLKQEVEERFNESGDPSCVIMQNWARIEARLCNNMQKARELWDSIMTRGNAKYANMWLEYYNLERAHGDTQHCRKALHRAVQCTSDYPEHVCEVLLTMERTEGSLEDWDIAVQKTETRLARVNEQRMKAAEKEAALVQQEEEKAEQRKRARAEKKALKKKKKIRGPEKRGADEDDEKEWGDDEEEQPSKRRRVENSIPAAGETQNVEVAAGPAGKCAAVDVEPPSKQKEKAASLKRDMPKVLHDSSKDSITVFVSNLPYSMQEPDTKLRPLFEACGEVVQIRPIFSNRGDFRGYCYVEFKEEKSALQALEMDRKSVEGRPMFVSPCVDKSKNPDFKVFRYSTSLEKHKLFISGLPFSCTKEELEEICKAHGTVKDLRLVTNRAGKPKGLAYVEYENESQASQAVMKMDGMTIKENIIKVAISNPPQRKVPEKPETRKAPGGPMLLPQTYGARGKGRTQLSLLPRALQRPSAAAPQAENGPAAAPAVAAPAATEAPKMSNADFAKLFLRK
Nature of the assay: co-IP; lysates from HCT116 cells; immunoprecipitation with anti-SART3 antibody, anti-USP15 antibody, rabbit IgG or mouse IgG; blotted with anti-SART3, anti-USP15 or anti-GAPDH antibody.

Assay [2] concerns the target tumor suppressor p53 (human (endogenous in HCT116)) (UniProt P04637). The assay can be described thus: co-IP; lysates from HCT116 cells transfected with siZNNT1 (or control); precipitated with anti-p53 antibody or mouse IgG, blotted with anti-SART3 and anti-actin antibodies.
Assay [3] concerns the target T2, ubiquitin-specific peptidase USP15 (human (endogenous in HCT116)) (UniProt Q9Y4E8).
T2 sequence: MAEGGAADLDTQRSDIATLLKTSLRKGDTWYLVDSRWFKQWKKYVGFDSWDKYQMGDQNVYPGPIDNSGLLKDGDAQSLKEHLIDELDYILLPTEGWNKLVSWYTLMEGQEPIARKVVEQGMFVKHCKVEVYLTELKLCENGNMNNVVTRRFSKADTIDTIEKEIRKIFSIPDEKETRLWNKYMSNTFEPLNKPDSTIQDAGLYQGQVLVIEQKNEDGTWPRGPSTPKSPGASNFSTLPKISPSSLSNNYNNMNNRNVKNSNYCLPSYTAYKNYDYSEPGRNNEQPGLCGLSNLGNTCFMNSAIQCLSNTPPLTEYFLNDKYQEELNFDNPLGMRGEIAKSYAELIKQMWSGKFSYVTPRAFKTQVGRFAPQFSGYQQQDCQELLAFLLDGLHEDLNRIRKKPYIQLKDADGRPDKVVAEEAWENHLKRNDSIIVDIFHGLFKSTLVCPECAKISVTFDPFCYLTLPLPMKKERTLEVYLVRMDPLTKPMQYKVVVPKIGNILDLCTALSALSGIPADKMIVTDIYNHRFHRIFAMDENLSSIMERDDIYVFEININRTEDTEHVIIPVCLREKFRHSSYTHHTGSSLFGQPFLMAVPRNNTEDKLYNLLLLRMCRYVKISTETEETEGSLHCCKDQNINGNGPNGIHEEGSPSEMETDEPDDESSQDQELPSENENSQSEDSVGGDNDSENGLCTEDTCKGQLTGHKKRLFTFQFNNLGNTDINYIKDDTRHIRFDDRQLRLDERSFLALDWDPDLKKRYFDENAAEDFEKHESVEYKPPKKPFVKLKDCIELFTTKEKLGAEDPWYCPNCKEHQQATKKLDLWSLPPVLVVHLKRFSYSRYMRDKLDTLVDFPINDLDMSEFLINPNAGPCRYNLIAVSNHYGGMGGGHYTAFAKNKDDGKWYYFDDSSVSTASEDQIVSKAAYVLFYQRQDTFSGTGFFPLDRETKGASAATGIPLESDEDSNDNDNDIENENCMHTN
The assay can be described thus: co-IP; lysates from HCT116 cells; immunoprecipitation with anti-SART3 antibody, anti-USP15 antibody, rabbit IgG or mouse IgG; blotted with anti-SART3, anti-USP15 or anti-GAPDH antibody.

No constants are given. Whether binding was seen depends on the method and setting. Binding seen in cells or lysates may run through a third protein. Some results given as binding are weak or reduced against the parent protein; the word gives no strength.

These results are taken from article PMC10337854.

B1: ubiquitin-specific peptidase USP15 (enzyme, UniProt Q9Y4E8 1-981)
chain: MAEGGAADLDTQRSDIATLLKTSLRKGDTWYLVDSRWFKQWKKYVGFDSWDKYQMGDQNVYPGPIDNSGLLKDGDAQSLKEHLIDELDYILLPTEGWNKLVSWYTLMEGQEPIARKVVEQGMFVKHCKVEVYLTELKLCENGNMNNVVTRRFSKADTIDTIEKEIRKIFSIPDEKETRLWNKYMSNTFEPLNKPDSTIQDAGLYQGQVLVIEQKNEDGTWPRGPSTPKSPGASNFSTLPKISPSSLSNNYNNMNNRNVKNSNYCLPSYTAYKNYDYSEPGRNNEQPGLCGLSNLGNTCFMNSAIQCLSNTPPLTEYFLNDKYQEELNFDNPLGMRGEIAKSYAELIKQMWSGKFSYVTPRAFKTQVGRFAPQFSGYQQQDCQELLAFLLDGLHEDLNRIRKKPYIQLKDADGRPDKVVAEEAWENHLKRNDSIIVDIFHGLFKSTLVCPECAKISVTFDPFCYLTLPLPMKKERTLEVYLVRMDPLTKPMQYKVVVPKIGNILDLCTALSALSGIPADKMIVTDIYNHRFHRIFAMDENLSSIMERDDIYVFEININRTEDTEHVIIPVCLREKFRHSSYTHHTGSSLFGQPFLMAVPRNNTEDKLYNLLLLRMCRYVKISTETEETEGSLHCCKDQNINGNGPNGIHEEGSPSEMETDEPDDESSQDQELPSENENSQSEDSVGGDNDSENGLCTEDTCKGQLTGHKKRLFTFQFNNLGNTDINYIKDDTRHIRFDDRQLRLDERSFLALDWDPDLKKRYFDENAAEDFEKHESVEYKPPKKPFVKLKDCIELFTTKEKLGAEDPWYCPNCKEHQQATKKLDLWSLPPVLVVHLKRFSYSRYMRDKLDTLVDFPINDLDMSEFLINPNAGPCRYNLIAVSNHYGGMGGGHYTAFAKNKDDGKWYYFDDSSVSTASEDQIVSKAAYVLFYQRQDTFSGTGFFPLDRETKGASAATGIPLESDEDSNDNDNDIENENCMHTN
For B1, the binding result in assay [1] is reported as “binds”.

B2: Squamous cell carcinoma antigen recognized by T cells 3 (SART3) (protein, UniProt Q15020 1-963)
chain: MATAAETSASEPEAESKAGPKADGEEDEVKAARTRRKVLSRAVAAATYKTMGPAWDQQEEGVSESDGDEYAMASSAESSPGEYEWEYDEEEEKNQLEIERLEEQLSINVYDYNCHVDLIRLLRLEGELTKVRMARQKMSEIFPLTEELWLEWLHDEISMAQDGLDREHVYDLFEKAVKDYICPNIWLEYGQYSVGGIGQKGGLEKVRSVFERALSSVGLHMTKGLALWEAYREFESAIVEAARLEKVHSLFRRQLAIPLYDMEATFAEYEEWSEDPIPESVIQNYNKALQQLEKYKPYEEALLQAEAPRLAEYQAYIDFEMKIGDPARIQLIFERALVENCLVPDLWIRYSQYLDRQLKVKDLVLSVHNRAIRNCPWTVALWSRYLLAMERHGVDHQVISVTFEKALNAGFIQATDYVEIWQAYLDYLRRRVDFKQDSSKELEELRAAFTRALEYLKQEVEERFNESGDPSCVIMQNWARIEARLCNNMQKARELWDSIMTRGNAKYANMWLEYYNLERAHGDTQHCRKALHRAVQCTSDYPEHVCEVLLTMERTEGSLEDWDIAVQKTETRLARVNEQRMKAAEKEAALVQQEEEKAEQRKRARAEKKALKKKKKIRGPEKRGADEDDEKEWGDDEEEQPSKRRRVENSIPAAGETQNVEVAAGPAGKCAAVDVEPPSKQKEKAASLKRDMPKVLHDSSKDSITVFVSNLPYSMQEPDTKLRPLFEACGEVVQIRPIFSNRGDFRGYCYVEFKEEKSALQALEMDRKSVEGRPMFVSPCVDKSKNPDFKVFRYSTSLEKHKLFISGLPFSCTKEELEEICKAHGTVKDLRLVTNRAGKPKGLAYVEYENESQASQAVMKMDGMTIKENIIKVAISNPPQRKVPEKPETRKAPGGPMLLPQTYGARGKGRTQLSLLPRALQRPSAAAPQAENGPAAAPAVAAPAATEAPKMSNADFAKLFLRK
For the molecule B2, the binding entry in assay [2] and in assay [3] was “binds” each time.
